In doi:10.1101/2019.12.20.882282 one finds binding data, which are given here for three molecules.

Chains of the proteins cited; added tags and fusions are not shown.
UniProt Q91YE5: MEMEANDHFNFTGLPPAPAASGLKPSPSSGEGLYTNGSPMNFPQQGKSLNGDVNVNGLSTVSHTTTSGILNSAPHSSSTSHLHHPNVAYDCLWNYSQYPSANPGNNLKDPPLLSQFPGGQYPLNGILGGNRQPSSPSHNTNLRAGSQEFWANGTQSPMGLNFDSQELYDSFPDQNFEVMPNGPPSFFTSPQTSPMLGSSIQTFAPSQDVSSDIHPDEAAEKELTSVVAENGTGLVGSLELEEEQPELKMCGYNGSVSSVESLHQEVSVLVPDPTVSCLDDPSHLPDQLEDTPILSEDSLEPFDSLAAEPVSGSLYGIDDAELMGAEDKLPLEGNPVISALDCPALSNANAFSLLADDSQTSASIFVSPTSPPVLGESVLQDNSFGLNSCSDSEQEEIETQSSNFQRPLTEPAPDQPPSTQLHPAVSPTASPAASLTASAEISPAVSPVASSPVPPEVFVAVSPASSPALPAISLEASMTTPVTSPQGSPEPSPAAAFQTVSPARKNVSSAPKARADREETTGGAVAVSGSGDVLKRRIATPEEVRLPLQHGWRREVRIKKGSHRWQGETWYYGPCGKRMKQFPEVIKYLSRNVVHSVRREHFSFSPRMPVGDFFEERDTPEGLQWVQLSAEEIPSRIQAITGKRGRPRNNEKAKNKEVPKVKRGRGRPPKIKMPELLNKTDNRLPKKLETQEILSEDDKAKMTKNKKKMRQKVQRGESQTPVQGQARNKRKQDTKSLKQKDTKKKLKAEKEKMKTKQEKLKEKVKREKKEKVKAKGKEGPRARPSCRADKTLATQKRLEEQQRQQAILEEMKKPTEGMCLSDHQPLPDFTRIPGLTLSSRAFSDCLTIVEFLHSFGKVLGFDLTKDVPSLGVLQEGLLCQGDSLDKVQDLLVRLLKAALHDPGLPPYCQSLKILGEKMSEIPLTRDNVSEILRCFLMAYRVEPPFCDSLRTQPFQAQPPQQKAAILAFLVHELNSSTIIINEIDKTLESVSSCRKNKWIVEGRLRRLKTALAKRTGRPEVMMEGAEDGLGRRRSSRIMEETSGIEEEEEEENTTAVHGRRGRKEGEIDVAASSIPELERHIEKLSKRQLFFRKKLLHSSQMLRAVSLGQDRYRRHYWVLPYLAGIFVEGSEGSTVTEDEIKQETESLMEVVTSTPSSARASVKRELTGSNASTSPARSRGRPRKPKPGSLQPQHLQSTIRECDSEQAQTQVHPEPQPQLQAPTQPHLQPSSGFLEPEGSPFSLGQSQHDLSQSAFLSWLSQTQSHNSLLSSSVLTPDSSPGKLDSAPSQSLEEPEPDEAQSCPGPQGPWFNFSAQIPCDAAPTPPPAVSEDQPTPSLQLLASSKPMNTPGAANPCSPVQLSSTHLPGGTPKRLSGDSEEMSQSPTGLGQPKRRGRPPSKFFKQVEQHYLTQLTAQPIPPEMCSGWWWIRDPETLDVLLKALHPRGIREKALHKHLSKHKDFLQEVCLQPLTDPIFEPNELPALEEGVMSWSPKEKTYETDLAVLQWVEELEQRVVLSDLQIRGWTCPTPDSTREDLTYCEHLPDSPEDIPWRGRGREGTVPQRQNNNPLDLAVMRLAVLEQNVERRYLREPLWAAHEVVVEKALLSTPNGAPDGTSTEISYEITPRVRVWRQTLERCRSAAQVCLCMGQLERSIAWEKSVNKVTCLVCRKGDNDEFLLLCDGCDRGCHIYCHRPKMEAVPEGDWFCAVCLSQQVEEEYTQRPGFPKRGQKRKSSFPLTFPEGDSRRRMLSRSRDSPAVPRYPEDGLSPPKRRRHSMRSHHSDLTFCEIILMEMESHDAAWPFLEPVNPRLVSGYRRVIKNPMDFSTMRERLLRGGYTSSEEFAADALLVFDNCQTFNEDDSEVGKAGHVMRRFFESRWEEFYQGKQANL
UniProt Q01320: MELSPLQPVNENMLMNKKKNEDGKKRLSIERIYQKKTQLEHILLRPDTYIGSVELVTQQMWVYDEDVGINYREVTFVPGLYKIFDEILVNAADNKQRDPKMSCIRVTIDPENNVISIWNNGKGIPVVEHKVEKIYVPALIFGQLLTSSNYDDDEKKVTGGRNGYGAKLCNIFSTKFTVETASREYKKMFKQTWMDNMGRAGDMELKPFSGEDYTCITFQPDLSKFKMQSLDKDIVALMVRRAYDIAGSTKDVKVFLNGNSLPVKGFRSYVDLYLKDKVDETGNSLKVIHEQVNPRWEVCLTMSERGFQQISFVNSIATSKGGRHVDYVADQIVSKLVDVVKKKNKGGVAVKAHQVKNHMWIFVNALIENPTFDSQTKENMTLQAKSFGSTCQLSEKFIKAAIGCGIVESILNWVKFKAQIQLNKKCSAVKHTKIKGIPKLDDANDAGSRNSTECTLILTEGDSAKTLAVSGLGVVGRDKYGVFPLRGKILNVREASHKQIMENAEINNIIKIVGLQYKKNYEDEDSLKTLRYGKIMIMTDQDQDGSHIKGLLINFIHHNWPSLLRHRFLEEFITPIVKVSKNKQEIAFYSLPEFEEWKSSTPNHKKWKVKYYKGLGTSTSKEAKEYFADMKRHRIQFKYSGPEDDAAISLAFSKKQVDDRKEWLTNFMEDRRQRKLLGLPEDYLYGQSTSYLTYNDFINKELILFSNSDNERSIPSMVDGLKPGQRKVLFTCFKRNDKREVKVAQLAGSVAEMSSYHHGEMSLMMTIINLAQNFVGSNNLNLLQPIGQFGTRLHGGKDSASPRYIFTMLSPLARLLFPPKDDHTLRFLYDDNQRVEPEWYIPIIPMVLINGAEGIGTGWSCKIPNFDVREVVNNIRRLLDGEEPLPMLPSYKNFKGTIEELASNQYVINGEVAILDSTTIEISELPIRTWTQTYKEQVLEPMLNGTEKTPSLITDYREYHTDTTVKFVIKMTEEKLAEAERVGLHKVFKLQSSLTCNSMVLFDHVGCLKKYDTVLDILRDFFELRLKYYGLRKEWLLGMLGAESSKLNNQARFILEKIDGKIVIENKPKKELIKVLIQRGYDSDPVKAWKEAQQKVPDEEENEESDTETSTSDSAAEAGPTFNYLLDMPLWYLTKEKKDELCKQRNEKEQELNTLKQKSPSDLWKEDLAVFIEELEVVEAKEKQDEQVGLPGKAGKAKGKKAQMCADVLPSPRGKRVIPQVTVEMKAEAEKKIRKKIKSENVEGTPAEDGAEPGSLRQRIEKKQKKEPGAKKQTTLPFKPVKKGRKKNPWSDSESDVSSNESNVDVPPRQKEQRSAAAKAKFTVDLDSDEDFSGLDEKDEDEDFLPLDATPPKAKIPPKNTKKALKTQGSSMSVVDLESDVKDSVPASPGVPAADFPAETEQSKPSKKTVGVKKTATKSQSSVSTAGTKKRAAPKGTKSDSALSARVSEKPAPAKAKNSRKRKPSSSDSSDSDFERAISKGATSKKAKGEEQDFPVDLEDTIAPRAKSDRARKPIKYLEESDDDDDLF
UniProt Q91ZW3: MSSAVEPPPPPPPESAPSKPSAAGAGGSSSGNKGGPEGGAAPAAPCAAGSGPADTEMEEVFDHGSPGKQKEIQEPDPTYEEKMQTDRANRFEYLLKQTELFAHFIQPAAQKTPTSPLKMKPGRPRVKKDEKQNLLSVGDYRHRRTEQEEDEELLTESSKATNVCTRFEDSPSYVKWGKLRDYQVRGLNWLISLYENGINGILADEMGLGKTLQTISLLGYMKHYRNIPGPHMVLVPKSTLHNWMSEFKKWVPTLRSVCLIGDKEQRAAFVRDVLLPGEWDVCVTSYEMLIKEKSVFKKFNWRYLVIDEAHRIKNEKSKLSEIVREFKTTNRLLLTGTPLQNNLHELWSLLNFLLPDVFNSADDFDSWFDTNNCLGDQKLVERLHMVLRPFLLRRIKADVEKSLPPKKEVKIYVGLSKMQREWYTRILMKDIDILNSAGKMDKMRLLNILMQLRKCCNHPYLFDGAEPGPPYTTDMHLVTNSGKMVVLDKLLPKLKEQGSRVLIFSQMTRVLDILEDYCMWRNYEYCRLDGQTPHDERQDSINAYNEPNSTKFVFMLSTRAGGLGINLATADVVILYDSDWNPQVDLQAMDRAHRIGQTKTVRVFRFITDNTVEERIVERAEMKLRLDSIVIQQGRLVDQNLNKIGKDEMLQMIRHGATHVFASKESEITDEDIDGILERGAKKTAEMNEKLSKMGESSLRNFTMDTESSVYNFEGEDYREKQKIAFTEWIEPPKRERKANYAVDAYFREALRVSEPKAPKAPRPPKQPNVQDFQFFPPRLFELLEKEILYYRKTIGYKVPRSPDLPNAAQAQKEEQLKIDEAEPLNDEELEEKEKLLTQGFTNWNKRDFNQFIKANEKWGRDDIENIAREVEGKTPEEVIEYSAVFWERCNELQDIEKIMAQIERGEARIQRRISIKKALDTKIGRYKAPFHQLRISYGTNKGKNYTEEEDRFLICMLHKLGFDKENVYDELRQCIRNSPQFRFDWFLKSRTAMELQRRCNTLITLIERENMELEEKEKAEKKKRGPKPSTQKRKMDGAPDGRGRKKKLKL

The labels stand for the following.
B1: SMC1a (protein, UniProt Q9CU62 1-1233)
chain: MGFLKLIEIENFKSYKGRQIIGPFQRFTAIIGPNGSGKSNLMDAISFVLGEKTSNLRVKTLRDLIHGAPVGKPAANRAFVSMVYSEEGAEDRTFARVIVGGSSEYKINNKVVQLHEYSEELEKLGILIKARNFLVFQGAVESIAMKNPKERTALFEEISRSGELAQEYDKRKKEMVKAEEDTQFNYHRKKNIAAERKEAKQEKEEADRYQRLKDEVVRAQVQLQLFKLYHNEVEIEKLNKELASKNKEIEKDKKRMDKVEDELKEKKKELGKMMREQQQIEKEIKEKDSELNQKRPQYIKAKENTSHKIKKLEAAKKSLQNAQKHYKKRKGDMDELEKEMLSVEKARQEFEERMEEESQSQGRDLTLEENQVKKYHRLKEEASKRAATLAQELEKFNRDQKADQDRLDLEERKKVETEAKIKQKLREIEENQKRIEKLEEYITTSKQSLEEQKKLEGELTEEVEMAKRRIDEINKELNQVMEQLGDARIDRQESSRQQRKAEIMESIKRLYPGSVYGRLIDLCQPTQKKYQIAVTKVLGKNMDAIIVDSEKTGRDCIQYIKEQRGEPETFLPLDYLEVKPTDEKLRELKGAKLVIDVIRYEPPHIKKALQYACGNALVCDNVEDARRIAFGGHQRHKTVALDGTLFQKSGVISGGASDLKAKARRWDEKAVDKLKEKKERLTEELKEQMKAKRKEAELRQVQSQAHGLQMRLKYSQSDLEQTKTRHLALNLQEKSKLESELANFGPRINDIKRIIQSREREMKDLKEKMNQVEDEVFEEFCREIGVRNIREFEEEKVKRQNEIAKKRLEFENQKTRLGIQLDFEKNQLKEDQDKVHMWEQTVKKDENEIEKLKKEEQRHMKIIDETMAQLQDLKNQHLAKKSEVNDKNHEMEEIRKKLGGANKEMTHLQKEVTAIETKLEQKRSDRHNLLQACKMQDIKLPLSKGTMDDISQEEGSSQGEESVSGSQRTSSIYAREALIEIDYGDLCEDLKDAQAEEEIKQEMNTLQQKLNEQQSVLQRIAAPNMKAMEKLESVRDKFQETSDEFEAARKRAKKAKQAFEQIKKERFDRFNACFESVATNIDEIYKALSRNSSAQAFLGPENPEEPYLDGINYNCVAPGKRFRPMDNLSGGEKTVAALALLFAIHSYKPAPFFVLDEIDAALDNTNIGKVANYIKEQSTCNFQAIVISLKEEFYTKAESLIGVYPEQGDCVISKVLTFDLTKYPDANPNPNEQ

Results are given in words; binding and its absence hold for the method and conditions named. Binding seen in cells or lysates may run through a third protein. Some results given as binding are weak or reduced against the parent protein; the word gives no strength.

The assay concerns the target FLAG-HA-tagged TIP5 (F/H-TIP5) (mouse (endogenous in 129/OlaHsd mouse ESCs)) (UniProt Q91YE5). Briefly: co-IP.
Take “DNA topoisomerase 2A (TOP2A) (from UniProt Q01320 1-1528)”: the binding result was “binds”.
Then “SNF2H (SMARCA5) (from UniProt Q91ZW3 1-1051)”, with “binds”; and B1, with “binds”.
